# The other results are listed elsewhere or left out.
# B1: PX14343G-pdi-535-24-535 (Parabacteroides distasonis) (protein)
# chain: LDTVPKDQLAPSTTWQTEADAKGFIVGCYKDLLDGNTLLYLDCGSDIGYNNFPWEGFRPWGDGSLSSSNPGQILYDYKSIRKANTFLENVDKVTFSSDAVKANYVAQAKAIRAYKYFLMNWWYGGVPIISSYSSADEAKVERNTEQEVRDYIAKDLDEALAGIAEAPEARGYIAKGAVLAIKMREALYYGDWQKAKDAAKAIIDLKQYELDPDYTNLFKVSGVDSKEIILADQNIETLDGLGTIGQMYNNVDQGWSSIVPTQNLVDMYEMSDGLTKEESKTYDAKHPFANRDPRMAMTILYPGRDWRGDVLNTLDEKLQDGTVNKNFPTYTDNASKSALTWAKYLDPMDQYGDVWSSGACPIVFRYAEVLLTYAEAANELSGPSDEIYGYLNQIRQRVGMGEVDKAKYGTKDKLRELIRRERTVELAGEGLRRADIVRWQEDGKMLAEKVMNGDLLRVTGTINYGESEPTKRAEITGTAVIETRQFSSRNRYLPIPQTSMDKNPNLKQNPGY
# Tests used:
# Assay in all cases: glycan array binding signal (z-score within array); higher = stronger binding
# Settings in all cases: glycan notation: IUPAC condensed, linker removed
# [1] = target: Fuc(a1-2)Gal
# Procedure, shortened: (§1)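 The binding signal is a Z-score computed within each array and averaged over linkers. Arrays of the same protein sequence at different concentrations or buffers were also averaged together. Data originate from 3228 arrays in the Consortium for Functional Glycomics database, kept only where the protein sequence was available.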
# [2] = target: Fuc(a1-2)Gal(b1-3)GalNAc
# Procedure, shortened: as §1
# [3] = target: Fuc(a1-2)Gal(b1-3)GalNAc(a1-3)[Fuc(a1-2)]Gal(b1-4)Glc
# Procedure, shortened: as §1
# [4] = target: Fuc(a1-2)Gal(b1-3)GalNAc(a1-3)[Fuc(a1-2)]Gal(b1-4)GlcNAc
# Procedure, shortened: as §1
# [5] = target: Fuc(a1-2)Gal(b1-3)GalNAc(b1-3)Gal
# Procedure, shortened: as §1
# [6] = target: Fuc(a1-2)Gal(b1-3)GalNAc(b1-3)Gal(a1-4)Gal(b1-4)Glc
# Procedure, shortened: as §1
# [7] = target: Fuc(a1-2)Gal(b1-3)GalNAc(b1-4)[Neu5Ac(a2-3)]Gal(b1-4)Glc
# Procedure, shortened: as §1
# [8] = target: Fuc(a1-2)Gal(b1-3)GlcNAc
# Procedure, shortened: as §1
# [9] = target: Fuc(a1-2)Gal(b1-3)GlcNAc(b1-2)Man(a1-3)[Fuc(a1-2)Gal(b1-3)GlcNAc(b1-2)Man(a1-6)]Man(b1-4)GlcNAc(b1-4)GlcNAc
# Procedure, shortened: as §1
# [10] = target: Fuc(a1-2)Gal(b1-3)GlcNAc(b1-2)Man(a1-3)[Fuc(a1-2)Gal(b1-3)GlcNAc(b1-2)Man(a1-6)]Man(b1-4)GlcNAc(b1-4)[Fuc(a1-6)]GlcNAc
# Procedure, shortened: as §1
# [11] = target: Fuc(a1-2)Gal(b1-3)GlcNAc(b1-3)Gal(b1-4)Glc
# Procedure, shortened: as §1
# [12] = target: Fuc(a1-2)Gal(b1-3)GlcNAc(b1-3)GalNAc
# Procedure, shortened: as §1
# [13] = target: Fuc(a1-2)Gal(b1-3)GlcNAc(b1-3)[Fuc(a1-2)Gal(b1-3)GlcNAc(b1-6)]GalNAc
# Procedure, shortened: as §1
# [14] = target: Fuc(a1-2)Gal(b1-3)GlcNAc(b1-3)[Gal(b1-4)GlcNAc(b1-6)]Gal(b1-4)Glc
# Procedure, shortened: as §1
# [15] = target: Fuc(a1-2)Gal(b1-3)GlcNAc(b1-3)[Neu5Ac(a2-6)Gal(b1-4)GlcNAc(b1-6)]Gal(b1-4)Glc
# Procedure, shortened: as §1
# [16] = target: Fuc(a1-2)Gal(b1-3)GlcNAc6S
# Procedure, shortened: as §1
# [17] = target: Fuc(a1-2)Gal(b1-3)[Fuc(a1-4)]GlcNAc
# Procedure, shortened: as §1
# [18] = target: Fuc(a1-2)Gal(b1-3)[Fuc(a1-4)]GlcNAc(b1-2)Man(a1-3)[Fuc(a1-2)Gal(b1-3)[Fuc(a1-4)]GlcNAc(b1-2)Man(a1-3)]Man(b1-4)GlcNAc(b1-4)GlcNAc
# Procedure, shortened: as §1
# [19] = target: Fuc(a1-2)Gal(b1-3)[Fuc(a1-4)]GlcNAc(b1-2)Man(a1-3)[Fuc(a1-2)Gal(b1-3)[Fuc(a1-4)]GlcNAc(b1-2)Man(a1-6)]Man(b1-4)GlcNAc(b1-4)[Fuc(a1-6)]GlcNAc(b1-4)[Fuc(a1-6)]GlcNAc
# Procedure, shortened: as §1
# [20] = target: Fuc(a1-2)Gal(b1-3)[Fuc(a1-4)]GlcNAc(b1-3)[Fuc(a1-3)[Gal(b1-4)]GlcNAc(b1-6)]Gal(b1-4)Glc
# Procedure, shortened: as §1
# [21] = target: Fuc(a1-2)Gal(b1-3)[Fuc(a1-4)]GlcNAc(b1-3)[Gal(b1-4)GlcNAc(b1-6)]Gal(b1-4)Glc
# Procedure, shortened: as §1
# [22] = target: Fuc(a1-2)Gal(b1-4)Glc
# Procedure, shortened: as §1
# [23] = target: Fuc(a1-2)Gal(b1-4)Glc6S
# Procedure, shortened: as §1
# [24] = target: Fuc(a1-2)Gal(b1-4)GlcNAc
# Procedure, shortened: as §1
# [25] = target: Fuc(a1-2)Gal(b1-4)GlcNAc(b1-2)Man
# Procedure, shortened: as §1
# [26] = target: Fuc(a1-2)Gal(b1-4)GlcNAc(b1-2)Man(a1-3)[Fuc(a1-2)Gal(b1-4)GlcNAc(b1-2)Man(a1-6)]Man(b1-4)GlcNAc(b1-4)GlcNAc
# Procedure, shortened: as §1
# [27] = target: Fuc(a1-2)Gal(b1-4)GlcNAc(b1-2)Man(a1-3)[Fuc(a1-2)Gal(b1-4)GlcNAc(b1-2)Man(a1-6)]Man(b1-4)GlcNAc(b1-4)[Fuc(a1-6)]GlcNAc
# Procedure, shortened: as §1
# [28] = target: Fuc(a1-2)Gal(b1-4)GlcNAc(b1-2)[Fuc(a1-2)Gal(b1-4)GlcNAc(b1-4)]Man(a1-3)[Fuc(a1-2)Gal(b1-4)GlcNAc(b1-2)Man(a1-6)]Man(b1-4)GlcNAc(b1-4)GlcNAc
# Procedure, shortened: as §1
# [29] = target: Fuc(a1-2)Gal(b1-4)GlcNAc(b1-3)Gal(b1-4)GlcNAc
# Procedure, shortened: as §1
# [30] = target: Fuc(a1-2)Gal(b1-4)GlcNAc(b1-3)Gal(b1-4)GlcNAc(b1-2)Man(a1-3)[Fuc(a1-2)Gal(b1-4)GlcNAc(b1-3)Gal(b1-4)GlcNAc(b1-2)Man(a1-6)]Man(b1-4)GlcNAc(b1-4)GlcNAc
# Procedure, shortened: as §1
# [31] = target: Fuc(a1-2)Gal(b1-4)GlcNAc(b1-3)Gal(b1-4)GlcNAc(b1-3)Gal(b1-4)GlcNAc
# Procedure, shortened: as §1
# [32] = target: Fuc(a1-2)Gal(b1-4)GlcNAc(b1-3)GalNAc
# Procedure, shortened: as §1
# [33] = target: Fuc(a1-2)Gal(b1-4)GlcNAc(b1-3)[Fuc(a1-2)Gal(b1-4)GlcNAc(b1-6)]GalNAc
# Procedure, shortened: as §1
# [34] = target: Fuc(a1-2)Gal(b1-4)GlcNAc(b1-3)[Fuc(a1-3)[Gal(b1-4)]GlcNAc(b1-6)]Gal(b1-4)Glc
# Procedure, shortened: as §1
# [35] = target: Fuc(a1-2)Gal(b1-4)GlcNAc(b1-6)GalNAc
# Procedure, shortened: as §1
# [36] = target: Fuc(a1-2)Gal(b1-4)GlcNAc6S
# Procedure, shortened: as §1
# [37] = target: Fuc(a1-2)Gal(b1-4)[Fuc(a1-3)]GlcNAc
# Procedure, shortened: as §1
# [38] = target: Fuc(a1-2)Gal(b1-4)[Fuc(a1-3)]GlcNAc(b1-2)Man(a1-3)[Fuc(a1-2)Gal(b1-4)[Fuc(a1-3)]GlcNAc(b1-2)Man(a1-6)]Man(b1-4)GlcNAc(b1-4)[Fuc(a1-6)]GlcNAc
# Procedure, shortened: as §1
# [39] = target: Fuc(a1-2)Gal(b1-4)[Fuc(a1-3)]GlcNAc(b1-2)[Fuc(a1-2)Gal(b1-4)[Fuc(a1-3)]GlcNAc(b1-4)]Man(a1-3)[Fuc(a1-2)Gal(b1-4)[Fuc(a1-3)]GlcNAc(b1-2)Man(a1-6)]Man(b1-4)GlcNAc(b1-4)GlcNAc
# Procedure, shortened: as §1
# [40] = target: Fuc(a1-2)Gal(b1-4)[Fuc(a1-3)]GlcNAc(b1-3)Gal(b1-4)[Fuc(a1-3)]GlcNAc
# Procedure, shortened: as §1
# [41] = target: Fuc(a1-2)Gal(b1-4)[Fuc(a1-3)]GlcNAc(b1-3)Gal(b1-4)[Fuc(a1-3)]GlcNAc(b1-3)Gal(b1-4)[Fuc(a1-3)]GlcNAc
# Procedure, shortened: as §1
# [42] = target: Fuc(a1-2)Gal(b1-4)[Fuc(a1-3)]GlcNAc(b1-3)GalNAc
# Procedure, shortened: as §1
# [43] = target: Fuc(a1-2)Gal(b1-4)[Fuc(a1-3)]GlcNAc(b1-3)[Neu5Ac(a2-6)Gal(b1-4)GlcNAc(b1-6)]Gal(b1-4)Glc
# Procedure, shortened: as §1
# [44] = target: Fuc(a1-2)Gal3S(b1-4)GlcNAc
# Procedure, shortened: as §1
# [45] = target: Fuc(a1-2)Gal6S(b1-3)GlcNAc
# Procedure, shortened: as §1
binder,measurement,setting,value
B1,glycan array binding signal (z-score),[1],-0.305
same,glycan array binding signal (z-score),[2],-1.05
same,glycan array binding signal (z-score),[3],-0.144
same,glycan array binding signal (z-score),[4],-0.103
same,glycan array binding signal (z-score),[5],0.221
same,glycan array binding signal (z-score),[6],-0.074
same,glycan array binding signal (z-score),[7],-0.439
same,glycan array binding signal (z-score),[8],-0.457
same,glycan array binding signal (z-score),[9],0.725
same,glycan array binding signal (z-score),[10],-0.691
same,glycan array binding signal (z-score),[11],-0.908
same,glycan array binding signal (z-score),[12],-0.429
same,glycan array binding signal (z-score),[13],-0.578
same,glycan array binding signal (z-score),[14],-1.03
same,glycan array binding signal (z-score),[15],-0.081
same,glycan array binding signal (z-score),[16],-0.083
same,glycan array binding signal (z-score),[17],-1.36
same,glycan array binding signal (z-score),[18],0.757
same,glycan array binding signal (z-score),[19],-0.302
same,glycan array binding signal (z-score),[20],-0.419
same,glycan array binding signal (z-score),[21],0.199
same,glycan array binding signal (z-score),[22],-0.597
same,glycan array binding signal (z-score),[23],0.228
same,glycan array binding signal (z-score),[24],-0.042
same,glycan array binding signal (z-score),[25],1.37
same,glycan array binding signal (z-score),[26],0.68
same,glycan array binding signal (z-score),[27],1.06
same,glycan array binding signal (z-score),[28],0.359
same,glycan array binding signal (z-score),[29],-0.666
same,glycan array binding signal (z-score),[30],0.503
same,glycan array binding signal (z-score),[31],0.33
same,glycan array binding signal (z-score),[32],0.446
same,glycan array binding signal (z-score),[33],-0.109
same,glycan array binding signal (z-score),[34],0.439
same,glycan array binding signal (z-score),[35],1.34
same,glycan array binding signal (z-score),[36],-0.509
same,glycan array binding signal (z-score),[37],-0.336
same,glycan array binding signal (z-score),[38],0.038
same,glycan array binding signal (z-score),[39],0.26
same,glycan array binding signal (z-score),[40],-0.758
same,glycan array binding signal (z-score),[41],-0.34
same,glycan array binding signal (z-score),[42],0.541
same,glycan array binding signal (z-score),[43],0.461
same,glycan array binding signal (z-score),[44],-0.388
same,glycan array binding signal (z-score),[45],-0.402

# Three consecutive entries already listed:
binder,measurement,setting,value
B1,glycan array binding signal (z-score),[10],-0.691
same,glycan array binding signal (z-score),[11],-0.908
same,glycan array binding signal (z-score),[12],-0.429

# From the supplement of paper PMC8728848
